In one assay the target is T1, ZFP36L2 (human) (UniProt P47974).
T1 sequence: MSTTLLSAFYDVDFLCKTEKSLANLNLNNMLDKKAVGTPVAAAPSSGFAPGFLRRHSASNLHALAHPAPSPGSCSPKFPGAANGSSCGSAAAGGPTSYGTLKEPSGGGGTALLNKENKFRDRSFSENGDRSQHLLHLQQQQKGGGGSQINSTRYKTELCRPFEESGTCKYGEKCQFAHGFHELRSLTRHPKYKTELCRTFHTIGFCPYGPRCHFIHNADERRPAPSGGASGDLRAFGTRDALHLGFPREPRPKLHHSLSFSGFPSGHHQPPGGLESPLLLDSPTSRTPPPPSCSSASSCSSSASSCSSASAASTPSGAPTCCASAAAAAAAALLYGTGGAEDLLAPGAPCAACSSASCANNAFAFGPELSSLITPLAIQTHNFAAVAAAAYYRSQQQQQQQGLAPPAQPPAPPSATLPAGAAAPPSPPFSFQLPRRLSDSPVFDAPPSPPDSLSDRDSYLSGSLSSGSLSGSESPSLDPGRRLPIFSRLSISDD
Kind of assay: co-IP; Supplementary Figure S5E, legend not shown; ZFP36 or ZFP36L2 and CNOT7, cells without PMA.

Sequences of proteins named here, by UniProt entry; tags and fusion partners are left off.
UniProt Q9UIV1: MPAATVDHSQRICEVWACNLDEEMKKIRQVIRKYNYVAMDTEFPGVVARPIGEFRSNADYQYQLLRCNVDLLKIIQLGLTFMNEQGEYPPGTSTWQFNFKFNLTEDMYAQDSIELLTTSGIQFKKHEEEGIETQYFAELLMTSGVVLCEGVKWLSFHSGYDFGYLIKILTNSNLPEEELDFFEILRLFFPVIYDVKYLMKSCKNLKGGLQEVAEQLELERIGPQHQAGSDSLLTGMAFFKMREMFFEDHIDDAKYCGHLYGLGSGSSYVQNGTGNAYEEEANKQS

In assay [1] the target is T2, ZFP36L1-SASA mutant (human) (UniProt Q07352).
T2 sequence: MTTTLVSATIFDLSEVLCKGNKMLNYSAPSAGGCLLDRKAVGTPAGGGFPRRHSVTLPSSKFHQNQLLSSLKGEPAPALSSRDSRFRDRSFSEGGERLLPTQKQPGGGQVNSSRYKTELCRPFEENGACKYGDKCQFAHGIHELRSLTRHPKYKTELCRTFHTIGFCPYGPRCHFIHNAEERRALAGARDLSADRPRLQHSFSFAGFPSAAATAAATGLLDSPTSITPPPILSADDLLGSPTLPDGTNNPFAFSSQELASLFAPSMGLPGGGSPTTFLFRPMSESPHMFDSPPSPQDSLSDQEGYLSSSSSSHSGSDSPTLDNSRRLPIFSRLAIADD
Kind of assay: co-IP; as a1, but cells treated with PMA (100 ng/ml, 30 min) before lysis; ZFP36L1 wild type, SASA and ΔC constructs.

The results in this text go back to paper PMC4150769.

No constants are given. Whether binding was seen depends on the method and setting. In cells and extracts the contact can be indirect. Some results given as binding are weak or reduced against the parent protein; the word gives no strength.

In the case of CNOT7 (from UniProt Q9UIV1 1-285), the binding result (with ZFP36L2 (human); in assay [1]) was “binds” throughout.
